Measured values published in patent US20090214558A1.
Residue numbers refer to the chain shown, from its start. Results are given in words; binding and its absence hold for the method and conditions named. Some entries that bind do so weakly or less than the wild type.

T1: MAdCAM on CHO cells expressing MAdCAM (UniProt Q13477)
T1 sequence (looked up): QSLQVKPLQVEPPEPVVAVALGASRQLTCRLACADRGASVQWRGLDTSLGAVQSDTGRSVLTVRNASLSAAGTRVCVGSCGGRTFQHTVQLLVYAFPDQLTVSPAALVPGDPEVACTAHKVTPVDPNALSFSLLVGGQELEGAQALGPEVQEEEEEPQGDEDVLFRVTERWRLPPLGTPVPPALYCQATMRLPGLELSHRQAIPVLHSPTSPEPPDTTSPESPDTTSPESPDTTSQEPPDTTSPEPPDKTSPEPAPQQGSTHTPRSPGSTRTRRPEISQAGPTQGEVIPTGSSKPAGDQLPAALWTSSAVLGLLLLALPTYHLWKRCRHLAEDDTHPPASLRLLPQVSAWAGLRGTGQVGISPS

T2: MAdCAM (analyte of the BIAcore experiment) (UniProt Q13477)
T2 sequence (looked up): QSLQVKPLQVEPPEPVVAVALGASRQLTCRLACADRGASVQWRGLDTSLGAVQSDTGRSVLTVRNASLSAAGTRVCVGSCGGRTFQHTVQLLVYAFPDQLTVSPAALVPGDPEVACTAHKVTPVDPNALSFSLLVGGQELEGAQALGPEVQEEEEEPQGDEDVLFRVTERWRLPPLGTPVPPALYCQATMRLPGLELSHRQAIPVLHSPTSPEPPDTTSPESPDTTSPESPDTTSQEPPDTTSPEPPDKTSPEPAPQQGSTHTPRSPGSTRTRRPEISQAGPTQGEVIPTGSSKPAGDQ

B1: 7.16.6_S (antibody, human IgG2, kappa, V domains shown)
VH: QVQLVQSGAEVKKPGASVKVSCKASGYTFTSYGINWVRQAPGQGLEWMGWISVYSGNTNYAQKVQGRVTMTADTSTSTAYMDLRSLRSDDTAVYYCAREGSSSSGDYYYGMDVWGQGTTVTVSS
VL: DIVMTQTPLSLSVTPGQPASISCKSSQSLLHTDGTTYLYWYLQKPGQPPQLLIYEVSNRFSGVPDRFSGSGSGTDFTLKISRVEAEDVGIYYCMQSIQLPWTFGQGTKVEIKR
B2: 7.16.6_V (antibody, human IgG2, kappa, V domains shown)
VH: B1 VH
VL: B1 VL with I90V, S96N
B3: 7.16.6_VS (antibody, human IgG2, kappa, V domains shown)
VH: B1 VH
VL: B1 VL with I90V
B4: 7.16.6_L (antibody, V domains shown)
VH: B1 VH with V64L
VL: B1 VL with S96N
B5: 7.16.6_LVS (antibody, human IgG2, kappa, V domains shown)
VH: B1 VH with V64L
VL: B1 VL with I90V

Tests used:
[1] = biological target: T1, MAdCAM on CHO cells expressing MAdCAM; assay: flow cytometry on CHO cells expressing MAdCAM
[2] = biological target: T2, MAdCAM (analyte of the BIAcore experiment); assay: BIAcore and JY cell adhesion assay (results of Table 2)

Binder | binding [1] | binding [2]
B1 | binds | binds
B2 | binds | binds
B3 | binds | binds
B4 | binds | binds
B5 | binds | binds
